The values below come from the supplement of paper PMC12819154, “High-throughput peptide-centric local stability assay extends protein–ligand identification to membrane proteins, tissues and bacteria” (Nature Structural & Molecular Biology, 2025).

Protein sequences, listed by entry. Tags and fused reporters are not part of them. Lines headed by an entry give the natural chain unless they say otherwise; changes in a name come on top.
UniProt Q91WP6: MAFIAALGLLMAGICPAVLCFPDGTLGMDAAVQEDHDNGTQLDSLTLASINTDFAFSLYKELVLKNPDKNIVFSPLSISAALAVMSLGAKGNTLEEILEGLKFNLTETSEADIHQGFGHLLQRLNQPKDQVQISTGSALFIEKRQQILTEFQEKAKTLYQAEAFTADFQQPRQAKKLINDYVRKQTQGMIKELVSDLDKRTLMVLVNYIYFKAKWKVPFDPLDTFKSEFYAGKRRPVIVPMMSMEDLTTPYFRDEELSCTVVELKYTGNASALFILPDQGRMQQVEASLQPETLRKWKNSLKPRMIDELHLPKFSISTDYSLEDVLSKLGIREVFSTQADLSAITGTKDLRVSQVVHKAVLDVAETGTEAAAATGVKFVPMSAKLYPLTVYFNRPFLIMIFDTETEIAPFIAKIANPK
UniProt Q91W36: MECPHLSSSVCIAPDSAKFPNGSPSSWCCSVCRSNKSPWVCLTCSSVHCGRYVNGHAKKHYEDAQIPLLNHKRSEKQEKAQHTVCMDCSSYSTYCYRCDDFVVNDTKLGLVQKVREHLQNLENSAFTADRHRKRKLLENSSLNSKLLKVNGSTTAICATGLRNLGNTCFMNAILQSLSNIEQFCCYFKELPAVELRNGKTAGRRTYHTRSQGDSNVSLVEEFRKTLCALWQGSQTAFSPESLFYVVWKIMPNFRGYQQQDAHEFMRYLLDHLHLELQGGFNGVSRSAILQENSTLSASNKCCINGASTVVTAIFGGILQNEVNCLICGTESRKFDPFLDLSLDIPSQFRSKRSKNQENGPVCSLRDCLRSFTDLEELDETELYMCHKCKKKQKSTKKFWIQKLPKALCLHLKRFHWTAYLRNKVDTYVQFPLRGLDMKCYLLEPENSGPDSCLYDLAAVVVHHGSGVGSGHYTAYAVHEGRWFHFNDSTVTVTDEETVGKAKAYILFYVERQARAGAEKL
UniProt Q91WD1: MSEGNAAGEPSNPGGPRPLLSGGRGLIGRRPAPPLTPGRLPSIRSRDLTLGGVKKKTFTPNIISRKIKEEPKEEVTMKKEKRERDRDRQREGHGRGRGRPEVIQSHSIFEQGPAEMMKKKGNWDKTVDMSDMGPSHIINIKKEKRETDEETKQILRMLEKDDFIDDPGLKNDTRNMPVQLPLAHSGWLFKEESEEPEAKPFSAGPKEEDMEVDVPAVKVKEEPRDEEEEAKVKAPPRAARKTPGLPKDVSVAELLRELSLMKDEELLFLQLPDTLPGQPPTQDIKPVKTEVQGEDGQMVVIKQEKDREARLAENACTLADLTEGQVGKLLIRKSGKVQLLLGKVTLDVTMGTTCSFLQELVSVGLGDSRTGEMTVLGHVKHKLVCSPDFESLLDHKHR
UniProt Q91X91: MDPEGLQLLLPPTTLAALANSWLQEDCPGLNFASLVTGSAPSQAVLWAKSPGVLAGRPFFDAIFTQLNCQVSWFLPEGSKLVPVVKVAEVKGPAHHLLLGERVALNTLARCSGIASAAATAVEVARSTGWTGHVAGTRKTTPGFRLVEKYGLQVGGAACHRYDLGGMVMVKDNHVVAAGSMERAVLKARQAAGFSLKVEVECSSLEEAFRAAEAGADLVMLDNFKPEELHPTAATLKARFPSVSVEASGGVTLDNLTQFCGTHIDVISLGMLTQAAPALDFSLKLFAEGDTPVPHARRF
UniProt Q8VIM9: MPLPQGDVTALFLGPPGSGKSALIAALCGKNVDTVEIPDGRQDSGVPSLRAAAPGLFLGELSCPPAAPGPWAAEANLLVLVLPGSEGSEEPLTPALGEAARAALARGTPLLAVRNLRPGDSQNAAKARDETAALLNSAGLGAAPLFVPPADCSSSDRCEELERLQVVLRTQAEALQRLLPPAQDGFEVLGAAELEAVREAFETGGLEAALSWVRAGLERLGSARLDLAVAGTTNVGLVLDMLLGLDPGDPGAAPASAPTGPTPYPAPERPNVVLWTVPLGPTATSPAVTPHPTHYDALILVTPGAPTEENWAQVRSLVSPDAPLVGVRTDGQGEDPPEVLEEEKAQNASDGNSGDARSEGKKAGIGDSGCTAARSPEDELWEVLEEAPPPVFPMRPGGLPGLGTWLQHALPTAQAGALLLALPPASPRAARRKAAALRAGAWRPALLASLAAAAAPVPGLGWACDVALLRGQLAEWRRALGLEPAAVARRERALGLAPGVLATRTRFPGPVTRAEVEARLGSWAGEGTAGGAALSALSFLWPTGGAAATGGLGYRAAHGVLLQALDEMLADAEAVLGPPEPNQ
UniProt Q91YE8: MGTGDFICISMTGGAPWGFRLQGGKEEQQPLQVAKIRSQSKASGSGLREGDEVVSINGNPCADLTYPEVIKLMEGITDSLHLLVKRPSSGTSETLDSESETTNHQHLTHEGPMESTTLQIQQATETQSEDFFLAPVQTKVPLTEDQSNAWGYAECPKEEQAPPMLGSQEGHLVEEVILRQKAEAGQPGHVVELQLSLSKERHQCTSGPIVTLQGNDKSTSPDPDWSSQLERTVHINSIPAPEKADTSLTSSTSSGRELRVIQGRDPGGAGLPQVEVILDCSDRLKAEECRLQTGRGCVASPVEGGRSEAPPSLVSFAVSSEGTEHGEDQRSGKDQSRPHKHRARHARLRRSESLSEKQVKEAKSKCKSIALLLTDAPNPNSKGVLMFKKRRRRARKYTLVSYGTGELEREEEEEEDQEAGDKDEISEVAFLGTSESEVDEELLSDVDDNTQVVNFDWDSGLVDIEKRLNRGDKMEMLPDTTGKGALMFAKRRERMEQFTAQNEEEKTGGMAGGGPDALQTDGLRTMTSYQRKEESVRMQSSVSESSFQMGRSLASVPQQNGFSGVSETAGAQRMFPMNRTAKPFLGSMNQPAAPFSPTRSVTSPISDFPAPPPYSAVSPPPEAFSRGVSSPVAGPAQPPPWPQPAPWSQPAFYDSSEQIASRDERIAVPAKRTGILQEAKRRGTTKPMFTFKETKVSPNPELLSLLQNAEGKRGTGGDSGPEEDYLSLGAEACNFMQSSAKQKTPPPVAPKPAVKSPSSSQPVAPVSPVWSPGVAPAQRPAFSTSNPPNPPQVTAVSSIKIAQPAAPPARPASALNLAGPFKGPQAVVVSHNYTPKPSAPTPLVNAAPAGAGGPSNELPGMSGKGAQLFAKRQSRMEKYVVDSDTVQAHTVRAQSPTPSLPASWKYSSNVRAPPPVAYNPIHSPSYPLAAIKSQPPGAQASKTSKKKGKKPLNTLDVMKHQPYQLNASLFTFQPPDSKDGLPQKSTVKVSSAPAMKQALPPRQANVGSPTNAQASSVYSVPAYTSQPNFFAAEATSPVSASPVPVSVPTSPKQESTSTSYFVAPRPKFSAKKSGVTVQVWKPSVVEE
UniProt Q91VR8: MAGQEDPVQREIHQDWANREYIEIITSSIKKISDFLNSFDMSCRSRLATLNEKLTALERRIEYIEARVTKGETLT
UniProt Q91W67: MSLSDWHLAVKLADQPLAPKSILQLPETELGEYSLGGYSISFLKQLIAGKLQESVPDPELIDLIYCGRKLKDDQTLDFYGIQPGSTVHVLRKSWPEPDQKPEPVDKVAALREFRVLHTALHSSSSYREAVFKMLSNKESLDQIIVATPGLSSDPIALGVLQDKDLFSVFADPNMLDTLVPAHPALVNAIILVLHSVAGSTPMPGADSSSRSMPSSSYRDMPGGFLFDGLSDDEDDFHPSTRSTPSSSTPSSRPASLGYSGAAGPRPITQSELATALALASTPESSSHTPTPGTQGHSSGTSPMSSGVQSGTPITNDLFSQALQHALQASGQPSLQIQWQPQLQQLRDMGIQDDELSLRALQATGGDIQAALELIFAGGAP
UniProt Q91Y97: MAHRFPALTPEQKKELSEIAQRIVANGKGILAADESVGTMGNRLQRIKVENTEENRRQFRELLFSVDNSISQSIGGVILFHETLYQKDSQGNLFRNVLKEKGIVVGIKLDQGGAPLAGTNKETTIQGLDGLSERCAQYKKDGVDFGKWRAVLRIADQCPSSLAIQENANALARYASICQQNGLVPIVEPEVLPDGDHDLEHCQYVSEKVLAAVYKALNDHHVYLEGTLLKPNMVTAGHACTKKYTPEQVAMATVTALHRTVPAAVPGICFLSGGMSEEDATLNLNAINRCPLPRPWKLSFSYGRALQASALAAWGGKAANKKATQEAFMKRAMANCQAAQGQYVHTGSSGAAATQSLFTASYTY
UniProt Q91Z22: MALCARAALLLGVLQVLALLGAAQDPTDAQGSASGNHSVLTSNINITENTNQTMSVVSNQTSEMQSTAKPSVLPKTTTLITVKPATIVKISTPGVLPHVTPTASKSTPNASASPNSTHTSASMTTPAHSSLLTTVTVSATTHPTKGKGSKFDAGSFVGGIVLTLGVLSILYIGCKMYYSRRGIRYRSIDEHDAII
UniProt Q91YT2: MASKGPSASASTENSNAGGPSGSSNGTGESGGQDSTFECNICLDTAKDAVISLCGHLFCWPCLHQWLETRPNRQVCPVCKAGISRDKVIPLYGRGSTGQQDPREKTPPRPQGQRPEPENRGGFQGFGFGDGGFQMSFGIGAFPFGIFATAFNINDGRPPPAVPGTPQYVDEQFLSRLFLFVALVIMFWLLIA
UniProt Q91Z31: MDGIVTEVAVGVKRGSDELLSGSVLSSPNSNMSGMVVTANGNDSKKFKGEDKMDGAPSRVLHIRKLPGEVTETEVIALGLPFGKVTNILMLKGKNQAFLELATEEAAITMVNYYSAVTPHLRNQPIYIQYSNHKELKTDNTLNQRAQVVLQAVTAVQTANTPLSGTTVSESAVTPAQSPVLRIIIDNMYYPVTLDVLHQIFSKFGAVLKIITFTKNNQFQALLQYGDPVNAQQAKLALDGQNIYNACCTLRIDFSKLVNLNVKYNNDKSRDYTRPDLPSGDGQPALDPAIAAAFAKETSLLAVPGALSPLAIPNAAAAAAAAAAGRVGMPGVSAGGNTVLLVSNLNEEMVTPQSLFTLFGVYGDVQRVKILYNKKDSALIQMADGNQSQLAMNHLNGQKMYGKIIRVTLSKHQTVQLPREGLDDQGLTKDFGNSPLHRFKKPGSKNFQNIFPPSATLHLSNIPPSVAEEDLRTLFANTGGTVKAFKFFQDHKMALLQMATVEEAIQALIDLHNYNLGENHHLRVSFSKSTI
UniProt Q8VIG1: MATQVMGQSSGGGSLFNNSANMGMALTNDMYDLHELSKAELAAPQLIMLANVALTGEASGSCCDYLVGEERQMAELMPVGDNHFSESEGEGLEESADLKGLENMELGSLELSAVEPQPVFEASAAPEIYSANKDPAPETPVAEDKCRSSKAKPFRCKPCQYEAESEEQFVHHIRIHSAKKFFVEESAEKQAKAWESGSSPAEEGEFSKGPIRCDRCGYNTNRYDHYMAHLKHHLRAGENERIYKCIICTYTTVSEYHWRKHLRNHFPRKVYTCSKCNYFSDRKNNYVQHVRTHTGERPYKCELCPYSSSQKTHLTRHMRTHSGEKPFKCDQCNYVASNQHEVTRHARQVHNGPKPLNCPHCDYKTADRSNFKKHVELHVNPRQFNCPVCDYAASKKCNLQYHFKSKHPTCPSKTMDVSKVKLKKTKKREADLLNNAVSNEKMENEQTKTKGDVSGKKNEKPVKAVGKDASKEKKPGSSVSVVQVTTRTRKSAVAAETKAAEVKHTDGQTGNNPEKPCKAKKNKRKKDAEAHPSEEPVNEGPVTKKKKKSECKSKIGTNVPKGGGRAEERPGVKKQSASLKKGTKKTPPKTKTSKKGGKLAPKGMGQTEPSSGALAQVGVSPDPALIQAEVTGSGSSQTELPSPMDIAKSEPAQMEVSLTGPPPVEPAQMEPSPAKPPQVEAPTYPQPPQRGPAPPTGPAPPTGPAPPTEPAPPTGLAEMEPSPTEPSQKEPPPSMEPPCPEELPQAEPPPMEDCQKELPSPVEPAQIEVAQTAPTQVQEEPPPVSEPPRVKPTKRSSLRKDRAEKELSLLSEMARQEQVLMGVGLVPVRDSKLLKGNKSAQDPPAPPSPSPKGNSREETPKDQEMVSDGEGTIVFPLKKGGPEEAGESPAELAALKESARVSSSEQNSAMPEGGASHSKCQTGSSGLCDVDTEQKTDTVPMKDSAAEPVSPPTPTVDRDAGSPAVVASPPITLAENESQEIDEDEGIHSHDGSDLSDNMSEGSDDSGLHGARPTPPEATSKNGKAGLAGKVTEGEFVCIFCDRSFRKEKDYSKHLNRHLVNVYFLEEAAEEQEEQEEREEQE
UniProt Q8VHQ4: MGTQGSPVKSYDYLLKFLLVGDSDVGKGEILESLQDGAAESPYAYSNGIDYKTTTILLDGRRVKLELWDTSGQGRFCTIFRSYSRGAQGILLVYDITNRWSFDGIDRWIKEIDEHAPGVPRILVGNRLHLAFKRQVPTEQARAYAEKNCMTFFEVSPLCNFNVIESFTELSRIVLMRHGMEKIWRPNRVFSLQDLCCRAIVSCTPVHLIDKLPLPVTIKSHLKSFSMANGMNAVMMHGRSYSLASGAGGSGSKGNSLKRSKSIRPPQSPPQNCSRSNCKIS

The other results are listed elsewhere or left out. Most values lie at the level of the controls, where differences are scatter.

Compound in this experiment: CN[C@@H]1C[C@H]2O[C@@](C)([C@@H]1OC)n1c3ccccc3c3c4c(c5c6ccccc6n2c5c31)C(=O)NC4 [staurosporine]
The experiment can be described thus: log2 fold change of tryptic peptide abundance, ligand vs vehicle (limited proteolysis) (log2 ratio); higher = more trypsin-susceptible (destabilized). The settings on record: ligand concentration: 20 uM; sample: mouse liver crude lysate; replicate design: treated separately.
As for “UniProt Q91WP6 (peptide sequence: MIDELHLPK, peptide start residue: 305)”, the log2 fold change was determined as 0.152.

Turning to “UniProt Q91W36 (peptide sequence: FHWTAYLR, peptide start residue: 414)”, the log2 fold change came out at 0.229. Consider “UniProt Q91XL2 (peptide sequence: DEVFQVLLHKR, peptide start residue: 334)”, for which the log2 fold change came to 0.497. Under “UniProt Q91WD1 (peptide sequence: RPAPPLTPGRLPSIR, peptide start residue: 30)” stands 0.729; under “UniProt Q91X91 (peptide sequence: VAEVKGPAHHLLLGER, peptide start residue: 87)”, -0.339. To “UniProt Q8VIM9 (peptide sequence: TQAEALQR, peptide start residue: 170)” belongs -0.171. Under “UniProt Q91VU6 (peptide sequence: YNPPVDATPDTR, peptide start residue: 91)” stands 0.0869; under “UniProt Q91YJ2 (peptide sequence: ETVNETGFQLK, peptide start residue: 189)”, 0.149. Turning to “UniProt Q8VHR0 (peptide sequence: ELDRELK, peptide start residue: 3371)”, the log2 fold change is -0.208.

Consider “UniProt Q91XB7 (peptide sequence: AYHSAYGVHGSK, peptide start residue: 2)”, for which the log2 fold change was -0.0348. Under “UniProt Q91YE8 (peptide sequence: QKTPPPVAPKPAVK, peptide start residue: 742)” stands -0.215; under “UniProt Q91VR8 (peptide sequence: KISDFLNSFDMSCR, peptide start residue: 31)”, -0.187; under “UniProt Q91W67 (peptide sequence: LADQPLAPK, peptide start residue: 12)”, -0.161. Under “UniProt Q91YE3 (peptide sequence: VELKPNSVSK, peptide start residue: 389)” stands 0.298; under “UniProt Q91Y97 (peptide sequence: YTPEQVAMATVTALHR, peptide start residue: 244)”, -0.287. As for “UniProt Q91Z22 (peptide sequence: SIDEHDAII, peptide start residue: 187)”, the log2 fold change is -0.0406. To “UniProt Q8VI75 (peptide sequence: TEPQVLATLLR, peptide start residue: 978)” belongs -0.375; to “UniProt Q91VN0 (peptide sequence: LRCDGEADCQDR, peptide start residue: 1314)”, 0.171. As to “UniProt Q91YT2 (peptide sequence: DKVIPLYGR, peptide start residue: 86)”, the log2 fold change was -0.0731.

On to “UniProt Q91YI6 (peptide sequence: TYAYLENR, peptide start residue: 296)”, for which the log2 fold change is -0.484. To “UniProt Q91Z31 (peptide sequence: DFGNSPLHR, peptide start residue: 430)” belongs 0.119.

With “UniProt Q91XC9 (peptide sequence: YWGAPQQR, peptide start residue: 188)”, the log2 fold change is -0.0491. Under “UniProt Q8VIG1 (peptide sequence: KKDAEAHPSEEPVNEGPVTK, peptide start residue: 525)” stands -0.695; under “UniProt Q8VHQ4 (peptide sequence: SIRPPQSPPQNCSR, peptide start residue: 262)”, 0.0708.
